No constants are given. Whether binding was seen depends on the method and setting. Binding seen in cells or lysates may run through a third protein. Some binding calls cover weakened binding; strength is not graded here. Where a sequence is shown, tags or fusion partners need not be part of it.
Molecular target: Gαi2 (endogenous, human platelet lysate) (human) (UniProt P04899)
Experiment: GST pull-down from GDP+AlF4- treated human platelet lysate, western blot

Protein sequences, listed by entry. Tags and fused reporters are not part of them. Residues count along the entry.
UniProt P04899, residues 2-355: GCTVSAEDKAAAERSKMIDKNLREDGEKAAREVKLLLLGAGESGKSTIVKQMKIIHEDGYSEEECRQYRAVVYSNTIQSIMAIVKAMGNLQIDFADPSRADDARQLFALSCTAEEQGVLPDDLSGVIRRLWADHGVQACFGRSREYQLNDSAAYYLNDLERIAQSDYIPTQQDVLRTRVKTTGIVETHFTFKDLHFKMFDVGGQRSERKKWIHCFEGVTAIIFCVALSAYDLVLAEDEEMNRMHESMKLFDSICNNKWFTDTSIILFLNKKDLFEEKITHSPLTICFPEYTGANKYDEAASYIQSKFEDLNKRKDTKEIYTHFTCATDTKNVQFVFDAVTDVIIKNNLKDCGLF

B1: GST-RGS18 fusion protein coupled to glutathione-Sepharose 4B (protein, not shown: a dimerising Fc or GST)
chain: METTLLFFSQINMCESKEKTFFKLIHGSGKEETSKEAKIRAKEKRNRLSLLVQKPEFHEDTRSSRSGHLAKETRVSPEEAVKWGESFDKLLSHRDGLEAFTRFLKTEFSEENIEFWIACEDFKKSKGPQQIHLKAKAIYEKFIQTDAPKEVNLDFHTKEVITNSITQPTLHSFDAAQSRVYQLMEQDSYTRFLKSDIYLDLMEGRPQRPTNLRRRSRSFTCNEFQDVQSDVAIWL
  binding: binds
